Molecules are shown by their SMILES.

Data on 60 molecules can be found in US20160090556A1, “PRODUCTS COMPRISING MALODOR REDUCTION MATERIALS” (The Procter & Gamble Company, priority 2014, published 2016).

One data set in a line: Melamine formaldehyde PMC leakage.
Conditions: not given
For the molecule `CC(C)(C)c1ccc2c(c1)OCC(=O)CO2` [Material 1085], the “Melamine formaldehyde PMC leakage (Comment Code J)” value is “J (Melamine formaldehyde PMC leakage less than or equal to 5%)”. Consider `CC1=C2CC(C(C)(C)O)CCC2(C)CCC1` (stereo not drawn) [Material 872], for which the “Melamine formaldehyde PMC leakage (Comment Code J)” value is reported as “J (Melamine formaldehyde PMC leakage less than or equal to 5%)”. On to `CC(C)=CCCC1=CCC(C)(C=O)CC1` (stereo not drawn) [Material 988], for which the “Melamine formaldehyde PMC leakage (Comment Code J)” value is “J (Melamine formaldehyde PMC leakage less than or equal to 5%)”. Same read-out and setting: the result for `C=CCCC(=O)C1=CCCC(C)(C)C1` [Material 697] reads “J (Melamine formaldehyde PMC leakage less than or equal to 5%)”; that for `CC1=C2CCC3(C)OC3C2C(C)(C)CCC1` (stereo not drawn) [Material 624], “J (Melamine formaldehyde PMC leakage less than or equal to 5%)”. As for `C=CC=CC=CCCCCC` [Material 876], the “Melamine formaldehyde PMC leakage (Comment Code J)” value is “J (Melamine formaldehyde PMC leakage less than or equal to 5%)”. Still for that read-out and setting: the result for `C=C1CCCC(C)(C)C2C=C(C)CCC12` (stereo not drawn) [Material 707] reads “J (Melamine formaldehyde PMC leakage less than or equal to 5%)”; that for `CC(C)=CCC=C(C)C1CC=C(C)CC1` (stereo not drawn) [Material 719], “J (Melamine formaldehyde PMC leakage less than or equal to 5%)”; that for `CC1(C)CCCC2(C)C1CCC1(C)OCCC12` (stereo not drawn) [Material 561], “J (Melamine formaldehyde PMC leakage less than or equal to 5%)”. With `CC1=CC2C(CC1)C(C)=CCC2C(C)C` (stereo not drawn) [Material 698], the “Melamine formaldehyde PMC leakage (Comment Code J)” value is on record as “J (Melamine formaldehyde PMC leakage less than or equal to 5%)”. Still for that read-out and setting: the value for `CC1CC(C)(c2ccccc2)CO1` (stereo not drawn) [Material 1006] was “J (Melamine formaldehyde PMC leakage less than or equal to 5%)”. Same read-out and setting: the value for `C=CCCCCCCCCC=O` [Material 871] was “J (Melamine formaldehyde PMC leakage less than or equal to 5%)”. On the same count and under the same terms, the value for `O=C(/C=C/c1ccccc1)OCc1ccccc1` [Material 650] was “J (Melamine formaldehyde PMC leakage less than or equal to 5%)”; that for `CC(C)=CCCC1=CCC(C#N)CC1` (stereo not drawn) [Material 660] was “J (Melamine formaldehyde PMC leakage less than or equal to 5%)”; that for `CC1=CC2C(C(C)C)CCC(C)(O)C2CC1` (stereo not drawn) [Material 1046] was “J (Melamine formaldehyde PMC leakage less than or equal to 5%)”. On to `C/C=C1/CC2CC1C1CCCOC21` (stereo not drawn) [Material 1008], for which the “Melamine formaldehyde PMC leakage (Comment Code J)” value is “J (Melamine formaldehyde PMC leakage less than or equal to 5%)”.

With `CCCCCCCCCCCC(=O)OCc1ccccc1` [Material 644], the “Melamine formaldehyde PMC leakage (Comment Code J)” value was “J (Melamine formaldehyde PMC leakage less than or equal to 5%)”.

Take `CCCCCOC(=O)C=Cc1ccccc1` [Material 671]: the “Melamine formaldehyde PMC leakage (Comment Code J)” value was “J (Melamine formaldehyde PMC leakage less than or equal to 5%)”. As for `CCCCCCCCCCC=O` [Material 1102], the “Melamine formaldehyde PMC leakage (Comment Code J)” value is reported as “J (Melamine formaldehyde PMC leakage less than or equal to 5%)”. On to `Cc1cc(C(C)(C)C)c(O)c(C(C)(C)C)c1` [Material 592], for which the “Melamine formaldehyde PMC leakage (Comment Code J)” value is reported as “J (Melamine formaldehyde PMC leakage less than or equal to 5%)”. Still for that read-out and setting: the value for `CC1=CCC(CCC(C)C(C)O)C1(C)C` (stereo not drawn) [Material 1023] was “J (Melamine formaldehyde PMC leakage less than or equal to 5%)”; that for `CC1(O)CCC2=C(CCCC2(C)C)C1` (stereo not drawn) [Material 675] was “J (Melamine formaldehyde PMC leakage less than or equal to 5%)”; that for `CC1=CCCC(C)=CCC(C)(C)C=CC1` [Material 706] was “J (Melamine formaldehyde PMC leakage less than or equal to 5%)”.

On to `CCCCCC(C=O)=Cc1ccc(C)cc1` [Material 769], for which the “Melamine formaldehyde PMC leakage (Comment Code J)” value was “J (Melamine formaldehyde PMC leakage less than or equal to 5%)”.

The data set is the same for the next values; noted with them: class code letter within Comment Code.
As to `CCCCCCOC(=O)c1ccccc1` [Material 271], the “Melamine formaldehyde PMC leakage (Comment Code J)” value is “J (Melamine formaldehyde PMC leakage less than or equal to 5%)”.

For `CCCCCCCCCCCCCC(=O)OCC` [Material 388], the “Melamine formaldehyde PMC leakage (Comment Code J)” value is “J (Melamine formaldehyde PMC leakage less than or equal to 5%)”. In the case of `CCCCCCC#CC(OC)OC` [Material 3], the “Melamine formaldehyde PMC leakage (Comment Code J)” value is recorded as “J (Melamine formaldehyde PMC leakage less than or equal to 5%)”. Same read-out and setting: the value for `O=C1CCCCCCCCCCCCCCCO1` [Material 277] was “J (Melamine formaldehyde PMC leakage less than or equal to 5%)”; that for `CC/C=C\CCOC(=O)C(C)CC` (stereo not drawn) [Material 544] was “J (Melamine formaldehyde PMC leakage less than or equal to 5%)”. Same read-out and setting: the result for `C=CC(C)CC/C=C(\C)CCC=O` (stereo not drawn) [Material 358] reads “J (Melamine formaldehyde PMC leakage less than or equal to 5%)”.

Take `C=C1CCC(C(C)C)C2C=C(C)CCC12` (stereo not drawn) [Material 333]: the “Melamine formaldehyde PMC leakage (Comment Code J)” value is on record as “J (Melamine formaldehyde PMC leakage less than or equal to 5%)”. Still for that read-out and setting: the result for `CC1=CC2C(=C(C)CCC2C(C)C)CC1` (stereo not drawn) [Material 465] reads “J (Melamine formaldehyde PMC leakage less than or equal to 5%)”; that for `C=C(C)[C@@H]1CCC2=CC(=O)C[C@@H](C)[C@]2(C)C1` [Material 48], “J (Melamine formaldehyde PMC leakage less than or equal to 5%)”. Same read-out and setting: the value for `O=C1CCCCCCCCCCCCCCO1` [Material 370] was “J (Melamine formaldehyde PMC leakage less than or equal to 5%)”; that for `COC(C=C(C)CCC=C(C)C)OC` [Material 520] was “J (Melamine formaldehyde PMC leakage less than or equal to 5%)”; that for `CCCCCC=CCC=CCCCCCCCC(=O)OC` [Material 105] was “J (Melamine formaldehyde PMC leakage less than or equal to 5%)”.

On to `CC1=CCC(=C(C)C)CCC(C)=CCC1` [Material 295], for which the “Melamine formaldehyde PMC leakage (Comment Code J)” value is recorded as “J (Melamine formaldehyde PMC leakage less than or equal to 5%)”.

With `O=C(OC1CCCCC1)c1ccccc1O` [Material 482], the “Melamine formaldehyde PMC leakage (Comment Code J)” value is on record as “J (Melamine formaldehyde PMC leakage less than or equal to 5%)”. The same measure, in the same setting: the result for `C=CCCCCCCC/C=C/CC#N` [Material 137] reads “J (Melamine formaldehyde PMC leakage less than or equal to 5%)”. On the same count and under the same terms, the result for `c1ccc(CCc2ccccc2)cc1` [Material 457] reads “J (Melamine formaldehyde PMC leakage less than or equal to 5%)”; that for `C=C1C2CCC(C)(C)C1CCC(OC)C2` (stereo not drawn) [Material 7], “J (Melamine formaldehyde PMC leakage less than or equal to 5%)”.

Turning to `CCC(C)c1ccc2ncccc2c1` (stereo not drawn) [Material 221], the “Melamine formaldehyde PMC leakage (Comment Code J)” value is on record as “J (Melamine formaldehyde PMC leakage less than or equal to 5%)”. For `CC(=O)OC1CC2CC1C1CCCC21` (stereo not drawn) [Material 441], the “Melamine formaldehyde PMC leakage (Comment Code J)” value is recorded as “J (Melamine formaldehyde PMC leakage less than or equal to 5%)”. The same measure, in the same setting: the value for `COC1(OC)CCCCCCCCCCC1` [Material 10] was “J (Melamine formaldehyde PMC leakage less than or equal to 5%)”; that for `COC1CCCCCCCCCCC1` [Material 9] was “J (Melamine formaldehyde PMC leakage less than or equal to 5%)”. For `CCCCCCCCC1CCC(=O)O1` (stereo not drawn) [Material 330], the “Melamine formaldehyde PMC leakage (Comment Code J)” value is “J (Melamine formaldehyde PMC leakage less than or equal to 5%)”. Still for that read-out and setting: the result for `CC1CCC(C(C)C)C(=O)C1` (stereo not drawn) [Material 210] reads “J (Melamine formaldehyde PMC leakage less than or equal to 5%)”; that for `CC(C=O)Cc1ccc(C(C)(C)C)cc1` (stereo not drawn) [Material 162], “J (Melamine formaldehyde PMC leakage less than or equal to 5%)”; that for `CCCCCCCCCCCCOC(C)=O` [Material 175], “J (Melamine formaldehyde PMC leakage less than or equal to 5%)”. The same measure, in the same setting: the value for `C=CCCCCCCCCC(=O)OCC` [Material 381] was “J (Melamine formaldehyde PMC leakage less than or equal to 5%)”; that for `C=CC(C)(CCC=C(C)C)OC(=O)CCCCCCC` (stereo not drawn) [Material 148] was “J (Melamine formaldehyde PMC leakage less than or equal to 5%)”; that for `O=C1CCCCCCCCOCCCCCCO1` [Material 18] was “J (Melamine formaldehyde PMC leakage less than or equal to 5%)”.

The same data set, now with this note: code letter J.
For the molecule `CC(=O)OC(c1ccccc1)C(Cl)(Cl)Cl` (stereo not drawn) [Material 1088], the “Comment Code: Melamine formaldehyde PMC leakage” value is recorded as “J (Melamine formaldehyde PMC leakage less than or equal to 5%)”. Still for that read-out and setting: the value for `CC1=C2CCC3(C)OC3C2C(C)(C)CCC1` (stereo not drawn) [Material 624] was “J (Melamine formaldehyde PMC leakage less than or equal to 5%)”; that for `C/C=C(\C)C(=O)OCCCCCC` [Material 909] was “J (Melamine formaldehyde PMC leakage less than or equal to 5%)”. Still for that read-out and setting: the value for `CCCCCCCC(=O)OCCC(C)C` [Material 237] was “J (Melamine formaldehyde PMC leakage less than or equal to 5%)”; that for `CC(=O)OC(C)CC(C)(C)c1ccccc1` (stereo not drawn) [Material 1134] was “J (Melamine formaldehyde PMC leakage less than or equal to 5%)”; that for `CC(=O)OCCC1CCCCC1` [Material 481] was “J (Melamine formaldehyde PMC leakage less than or equal to 5%)”. Same read-out and setting: the result for `CC1=C(C/C=C(\C)C=O)C(C)(C)CCC1` [Material 602] reads “J (Melamine formaldehyde PMC leakage less than or equal to 5%)”; that for `C=C1C2CCC(C)(C)C1CCC(OC)C2` (stereo not drawn) [Material 7], “J (Melamine formaldehyde PMC leakage less than or equal to 5%)”; that for `CC(=O)OC1CC2CC1C1CCCC21` (stereo not drawn) [Material 441], “J (Melamine formaldehyde PMC leakage less than or equal to 5%)”. Consider `CC(C)=CCCC(C)CCOC=O` (stereo not drawn) [Material 512], for which the “Comment Code: Melamine formaldehyde PMC leakage” value is recorded as “J (Melamine formaldehyde PMC leakage less than or equal to 5%)”. Still for that read-out and setting: the value for `CCC(=O)OCCc1ccccc1` [Material 835] was “J (Melamine formaldehyde PMC leakage less than or equal to 5%)”.
